Reference: PMC7424068, “Design, Synthesis, and Biological Evaluation of Novel Thiazolidinone-Containing Quinoxaline-1,4-di-N-oxides as Antimycobacterial and Antifungal Agents” (Frontiers in Chemistry, 2020)

Tested on: TB-infected macrophage model
Experiment: Macrophage assay (TB-infected macrophage model)
Type: cell-based, Mycobacterium tuberculosis
Details: macrophage EC90 over MIC; EC90 > 16 x MIC considered inactive

Row | SMILES | EC90/MIC
1 | O=C1CSC(c2c[n+]([O-])c3ccc(F)cc3[n+]2[O-])N1c1ccc(F)cc1 (stereo not shown) [2t, 7-F-2-(3′-P-fluorophenyl-4′(5H)-thiazolidinone)-quinoxaline-1,4-di-N-oxide] | 1.06
2 | O=C1CSC(c2c[n+]([O-])c3ccc(F)cc3[n+]2[O-])N1c1ccc(Cl)cc1 (stereo not shown) [2u, 7-F-2-(3′-P-chlorophenyl-4′(5H)-thiazolidinone)-quinoxaline-1,4-di-N-oxide] | 0.54
3 | O=C1CSC(c2c[n+]([O-])c3ccc(Cl)cc3[n+]2[O-])N1c1ccc(F)cc1 (stereo not shown) [2y, 7-Cl-2-(3′-P-fluorophenyl-4′(5H)-thiazolidinone)-quinoxaline-1,4-di-N-oxide] | 0.85
4 | O=C1CSC(c2c[n+]([O-])c3ccc(Cl)cc3[n+]2[O-])N1c1ccc(Cl)cc1 (stereo not shown) [2z, 7-Cl-2-(3′-P-chlorophenyl-4′(5H)-thiazolidinone)-quinoxaline-1,4-di-N-oxide] | 0.59
